From PubChem BioAssay AID332 (DTP/NCI, 2004) come the findings set out here.

In this assay the test system is mice, ADJ-PC-20 plasma cell tumor sc, T/C %. Kind of assay: NCI In Vivo Anticancer Drug Screen. Data for tumor model ADJ-PC-20 Plasma Cell (subcutaneous) in unknown mice. The settings on record: T/C endpoint: mean tumor weight, schedule: Q01DX010 (ip), higher T/C = larger tumour. Here is the method:
The antitumor activity of compounds was measured in mice bearing transplantable tumors. Survival or tumor size were measured and the results are expressed as the measurement made in the treated group (T) divided by the measurement made in the vehicle treated control group (C). The tumor model used in this assay is ADJ-PC-20 Plasma Cell (subcutaneous) in unknown mice

Where [1] appears, read: dose: 25.0 mg/kg/injection, vehicle: saline.
The mark [2] stands for this setting: dose: 25.0 mg/kg/injection, vehicle: saline, evaluated on day 21.
[3] abbreviates: dose: 100.0 mg/kg/injection, vehicle: saline.
Where [4] appears, read: dose: 200.0 mg/kg/injection, vehicle: saline.
Where [5] appears, read: dose: 125.0 mg/kg/injection, vehicle: saline, evaluated on day 21.
Setting [6] is: dose: 400.0 mg/kg/injection, vehicle: carboxymethylcellulose (CMC).

The list does not hold the whole screen: it is rich in T/C values a quarter to a half above the control, in often repeated tests (any T/C) and in doses without a T/C. Further doses and runs are listed elsewhere. T/C: endpoint of the treated group in % of that of the vehicle group. Schedules are NCI's codes, taken here to give the interval after Q, in days (D) or hours (H), and the number of doses after X. Some doses were run more than once; their values stand side by side, smallest first. Some T/C values are followed by the survivors on the day toxicity was checked, most often the fifth; where none is given, no animal had died by that day. Some doses have a count of surviving animals in place of a T/C: the source files T/C as zero there, which appears to mark a toxic dose or a test without result, not a measured value. Counts of survivors are from the toxicity check (mostly the fifth day) where no day follows; animals may have died later. Marks such as (2×) say how often a value occurs here.

Turning to `O=c1[nH]cc(F)c(=O)[nH]1`, the T/C (dose: 3.12 mg/kg/injection, vehicle: saline, evaluated on day 21) was 142 % of control [9 of 10 alive]. Under setting [1], the survivor count is 0 of 10.

For the molecule `O=P1(N(CCCl)CCCl)NCCCO1` (configuration not stated), the T/C reads like this: (dose: 12.5 mg/kg/injection, vehicle: saline, evaluated on day 20) 37 % of control [9 of 10 alive]; (dose: 12.5 mg/kg/injection, vehicle: saline, evaluated on day 21) 8, 25, 47 % of control; (dose: 25.0 mg/kg/injection, vehicle: saline, evaluated on day 20) 15 % of control; under setting [2], 3 [5 of 6 alive] and 5 % of control. Further, the survivor count is 0 of 10 (dose: 40.0 mg/kg/injection, vehicle: saline); 5 of 10 (dose: 50.0 mg/kg/injection, vehicle: saline); 0 of 10 and 0 of 6 (2×) under setting [3]; 0 of 6 under setting [4].

In the case of `CCOC(N)=O`, under setting [5], the T/C was 127 % of control. Further, the survivor count (dose: 1000.0 mg/kg/injection, vehicle: saline) was 0 of 10 and 1 of 10.

Consider `C1CN1c1nc(N2CC2)nc(N2CC2)n1`, for which the survivor count runs as follows: (dose: 0.25 mg/kg/injection, vehicle: saline) 0 of 10; (dose: 1.0 mg/kg/injection, vehicle: saline) 0 of 10.

`CS(=O)(=O)OCCCl`: the survivor count is, setting by setting: (dose: 200.0 mg/kg/injection, vehicle: carboxymethylcellulose (CMC)) 3 of 10; under setting [6], 0 of 10.

Turning to `CN(N=O)C(=O)NC(C=O)C(O)C(O)C(O)CO` (configuration not stated), under setting [2], the T/C is 133 % of control. Also, the survivor count by setting is: under setting [3], 0 of 10; under setting [4], 0 of 10.

On to `O=C1CCC(N2C(=O)c3ccccc3C2=O)C(=O)N1` (configuration not stated), for which the T/C (dose: 150.0 mg/kg/injection, vehicle: carboxymethylcellulose (CMC), evaluated on day 21) is 145 % of control and the T/C (dose: 600.0 mg/kg/injection, vehicle: carboxymethylcellulose (CMC), evaluated on day 21) was 125 % of control.

For `O=C(Nc1ccc(C2=NCCN2)cc1)c1cccc(C(=O)Nc2ccc(C3=NCCN3)cc2)c1`, for the setting “dose: 75.0 mg/kg/injection, vehicle: carboxymethylcellulose (CMC)”, the survivor count was 2 of 10.

`O=NN(CCCl)C(=O)NCCCl`: the survivor count under setting [1] is reported as 0 of 10.

With `[I][Hg][CH2]C1COC([CH2][Hg][I])CO1` (configuration not stated), the survivor count is, setting by setting: (dose: 60.0 mg/kg/injection, vehicle: carboxymethylcellulose (CMC)) 0 of 10; (dose: 120.0 mg/kg/injection, vehicle: carboxymethylcellulose (CMC)) 0 of 10.

Turning to `CN(C)CC(=O)c1ccc(O)c(O)c1`, the T/C under setting [5] is 125 % of control.

In the case of `CC(CCC(C)OS(C)(=O)=O)OS(C)(=O)=O` (configuration not stated), the survivor count (dose: 80.0 mg/kg/injection, vehicle: carboxymethylcellulose (CMC)) is 0 of 10 and the survivor count (dose: 160.0 mg/kg/injection, vehicle: carboxymethylcellulose (CMC)) is listed as 0 of 10.

Turning to `Nc1nc2n[nH]nc2c(=O)[nH]1`, for the setting “dose: 12.5 mg/kg/injection, vehicle: other, evaluated on day 21”, the T/C was 129 % of control. For the same molecule, the survivor count is, setting by setting: (dose: 100.0 mg/kg/injection, vehicle: other) 5 of 10; (dose: 150.0 mg/kg/injection, vehicle: other) 5 of 10; (dose: 300.0 mg/kg/injection, vehicle: other) 0 of 10.

In the case of `S=P(N1CCOCC1)(N1CC1)N1CC1`, the T/C (dose: 3.1 mg/kg/injection, vehicle: carboxymethylcellulose (CMC), evaluated on day 21) was 136 % of control. For the same molecule, the survivor count (dose: 25.0 mg/kg/injection, vehicle: carboxymethylcellulose (CMC)) is 0 of 10.

Regarding `CS(=O)(=O)OCCCCOS(C)(=O)=O`, the survivor count (dose: 1.56 mg/kg/injection, vehicle: methylcellulose (MC)) is given as 4 of 10; the survivor count (dose: 50.0 mg/kg/injection, vehicle: methylcellulose (MC)) is listed as 2 of 10; the survivor count (dose: 100.0 mg/kg/injection, vehicle: methylcellulose (MC)) is listed as 0 of 10. In addition, the T/C (dose: 3.12 mg/kg/injection, vehicle: methylcellulose (MC), evaluated on day 21) is 138 % of control [8 of 10 alive]; the T/C (dose: 6.25 mg/kg/injection, vehicle: methylcellulose (MC), evaluated on day 21) was 130 % of control; the T/C (dose: 12.5 mg/kg/injection, vehicle: methylcellulose (MC), evaluated on day 21) was 143 % of control.

`O=C(Nc1ccc(C2=NCCN2)cc1)c1ccc(C(=O)Nc2ccc(C3=NCCN3)cc2)cc1`: the survivor count reads like this: under setting [6], 1 of 10; (dose: 800.0 mg/kg/injection, vehicle: carboxymethylcellulose (CMC)) 0 of 10.

Consider `Nc1nc(N)c2nc(CNc3ccc(C(=O)NC(CCC(=O)O)C(=O)O)cc3)cnc2n1` (configuration not stated), for which the survivor count reads like this: (dose: 250.0 micrograms/kg/injection, vehicle: alkali diluted with saline) 4 of 10; (dose: 500.0 micrograms/kg/injection, vehicle: alkali diluted with saline) 2 of 10.

In the case of `Nc1ncnc2[nH]ncc12`, the survivor count (dose: 50.0 mg/kg/injection, vehicle: carboxymethylcellulose (CMC)) was 0 of 10.

For the molecule `O=c1[nH]c(=O)n(C2CC(O)C(CO)O2)cc1I` (configuration not stated), the survivor count is 4 of 10 (dose: 500.0 mg/kg/injection, vehicle: carboxymethylcellulose (CMC)) and 4 of 10 (dose: 1000.0 mg/kg/injection, vehicle: carboxymethylcellulose (CMC)).
